Measured values from the supplement of paper PMC10849652.
This is one part of the list.

Sequences of proteins named here, by UniProt entry; tags and fusion partners are left off. A change or cut given only in a name is not applied to a line headed by its entry.
UniProt Q9NUP9: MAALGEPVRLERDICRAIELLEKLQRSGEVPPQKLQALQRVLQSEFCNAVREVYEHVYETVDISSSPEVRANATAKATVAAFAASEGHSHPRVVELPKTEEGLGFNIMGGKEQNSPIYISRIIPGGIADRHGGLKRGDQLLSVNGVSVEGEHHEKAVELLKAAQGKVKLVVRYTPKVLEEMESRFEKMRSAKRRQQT
UniProt Q7L1W4: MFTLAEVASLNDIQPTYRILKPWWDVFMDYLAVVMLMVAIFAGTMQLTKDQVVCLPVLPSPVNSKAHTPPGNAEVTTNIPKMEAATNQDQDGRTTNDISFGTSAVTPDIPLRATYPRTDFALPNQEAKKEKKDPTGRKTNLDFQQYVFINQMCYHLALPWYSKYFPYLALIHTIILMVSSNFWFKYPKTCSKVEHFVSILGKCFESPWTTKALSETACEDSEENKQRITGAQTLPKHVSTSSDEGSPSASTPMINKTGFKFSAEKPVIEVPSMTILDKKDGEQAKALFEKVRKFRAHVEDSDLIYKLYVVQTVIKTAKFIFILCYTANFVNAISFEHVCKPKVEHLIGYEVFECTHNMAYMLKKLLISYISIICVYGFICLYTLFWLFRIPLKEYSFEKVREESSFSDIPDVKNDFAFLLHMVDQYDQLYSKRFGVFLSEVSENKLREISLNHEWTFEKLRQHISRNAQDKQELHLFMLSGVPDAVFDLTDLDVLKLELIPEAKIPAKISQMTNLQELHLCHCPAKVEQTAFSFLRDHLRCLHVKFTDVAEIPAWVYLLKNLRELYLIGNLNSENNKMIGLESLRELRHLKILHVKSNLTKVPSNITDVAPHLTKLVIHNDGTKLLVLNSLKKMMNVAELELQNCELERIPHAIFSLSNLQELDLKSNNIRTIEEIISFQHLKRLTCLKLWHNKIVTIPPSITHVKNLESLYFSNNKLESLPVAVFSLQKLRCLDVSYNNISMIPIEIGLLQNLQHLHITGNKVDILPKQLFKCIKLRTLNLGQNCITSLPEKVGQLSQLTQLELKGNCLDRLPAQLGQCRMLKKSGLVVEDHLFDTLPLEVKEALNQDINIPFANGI
UniProt Q8N9N7: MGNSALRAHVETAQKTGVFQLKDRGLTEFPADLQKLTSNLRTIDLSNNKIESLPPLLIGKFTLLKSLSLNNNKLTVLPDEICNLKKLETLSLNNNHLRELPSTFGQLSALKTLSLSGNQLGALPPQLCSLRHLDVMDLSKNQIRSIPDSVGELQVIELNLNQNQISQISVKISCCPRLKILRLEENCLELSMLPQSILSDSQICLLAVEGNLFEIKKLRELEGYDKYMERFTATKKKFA
UniProt P49257: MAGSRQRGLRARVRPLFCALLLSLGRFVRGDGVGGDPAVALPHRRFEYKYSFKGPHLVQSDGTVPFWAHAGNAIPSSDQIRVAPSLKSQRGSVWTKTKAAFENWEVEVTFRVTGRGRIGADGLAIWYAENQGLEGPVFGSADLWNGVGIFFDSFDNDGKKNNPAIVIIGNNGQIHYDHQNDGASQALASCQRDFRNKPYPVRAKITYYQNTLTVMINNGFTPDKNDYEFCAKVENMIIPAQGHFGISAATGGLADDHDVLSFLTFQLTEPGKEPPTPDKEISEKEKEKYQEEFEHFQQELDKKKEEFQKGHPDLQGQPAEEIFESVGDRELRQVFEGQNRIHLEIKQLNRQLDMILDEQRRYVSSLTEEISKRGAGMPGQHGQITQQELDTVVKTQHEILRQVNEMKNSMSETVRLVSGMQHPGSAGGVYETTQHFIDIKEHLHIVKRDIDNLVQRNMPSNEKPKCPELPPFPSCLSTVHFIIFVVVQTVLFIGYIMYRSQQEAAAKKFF
UniProt P20700: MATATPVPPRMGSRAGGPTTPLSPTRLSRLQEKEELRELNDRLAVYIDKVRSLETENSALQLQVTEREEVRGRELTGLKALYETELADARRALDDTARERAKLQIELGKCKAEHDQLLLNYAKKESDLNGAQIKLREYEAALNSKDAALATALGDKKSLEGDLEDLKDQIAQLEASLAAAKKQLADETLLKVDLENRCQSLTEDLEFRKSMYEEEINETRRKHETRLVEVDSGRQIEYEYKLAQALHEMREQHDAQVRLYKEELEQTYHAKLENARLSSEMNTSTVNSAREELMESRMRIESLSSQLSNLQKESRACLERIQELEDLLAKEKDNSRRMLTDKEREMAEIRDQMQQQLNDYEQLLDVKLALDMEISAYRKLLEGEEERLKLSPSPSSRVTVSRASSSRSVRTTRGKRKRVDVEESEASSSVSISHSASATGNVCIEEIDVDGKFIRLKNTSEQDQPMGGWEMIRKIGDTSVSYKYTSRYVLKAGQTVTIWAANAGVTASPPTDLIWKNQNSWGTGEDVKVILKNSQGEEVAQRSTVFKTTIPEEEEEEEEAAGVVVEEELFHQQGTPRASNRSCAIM
UniProt Q8NG48: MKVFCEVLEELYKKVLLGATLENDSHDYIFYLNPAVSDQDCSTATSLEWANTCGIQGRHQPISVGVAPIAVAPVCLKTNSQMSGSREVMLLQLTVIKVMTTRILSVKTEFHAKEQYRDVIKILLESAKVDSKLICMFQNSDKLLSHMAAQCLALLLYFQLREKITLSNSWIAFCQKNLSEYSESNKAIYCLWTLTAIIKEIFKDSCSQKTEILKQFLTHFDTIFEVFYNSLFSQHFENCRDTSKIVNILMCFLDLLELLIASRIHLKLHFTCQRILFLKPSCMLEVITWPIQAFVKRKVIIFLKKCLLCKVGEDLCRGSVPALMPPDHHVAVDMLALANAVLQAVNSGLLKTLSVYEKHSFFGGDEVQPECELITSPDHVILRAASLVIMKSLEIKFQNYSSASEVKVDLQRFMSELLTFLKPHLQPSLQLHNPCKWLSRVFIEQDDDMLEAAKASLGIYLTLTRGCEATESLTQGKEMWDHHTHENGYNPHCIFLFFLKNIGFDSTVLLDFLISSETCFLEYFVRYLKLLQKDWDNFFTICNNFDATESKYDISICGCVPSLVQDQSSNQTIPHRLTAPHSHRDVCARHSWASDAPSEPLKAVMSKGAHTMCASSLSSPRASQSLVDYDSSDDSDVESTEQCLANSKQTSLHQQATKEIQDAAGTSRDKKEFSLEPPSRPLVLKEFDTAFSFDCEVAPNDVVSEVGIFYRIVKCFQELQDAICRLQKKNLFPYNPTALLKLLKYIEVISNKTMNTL
UniProt P18858, whole entry, looked up: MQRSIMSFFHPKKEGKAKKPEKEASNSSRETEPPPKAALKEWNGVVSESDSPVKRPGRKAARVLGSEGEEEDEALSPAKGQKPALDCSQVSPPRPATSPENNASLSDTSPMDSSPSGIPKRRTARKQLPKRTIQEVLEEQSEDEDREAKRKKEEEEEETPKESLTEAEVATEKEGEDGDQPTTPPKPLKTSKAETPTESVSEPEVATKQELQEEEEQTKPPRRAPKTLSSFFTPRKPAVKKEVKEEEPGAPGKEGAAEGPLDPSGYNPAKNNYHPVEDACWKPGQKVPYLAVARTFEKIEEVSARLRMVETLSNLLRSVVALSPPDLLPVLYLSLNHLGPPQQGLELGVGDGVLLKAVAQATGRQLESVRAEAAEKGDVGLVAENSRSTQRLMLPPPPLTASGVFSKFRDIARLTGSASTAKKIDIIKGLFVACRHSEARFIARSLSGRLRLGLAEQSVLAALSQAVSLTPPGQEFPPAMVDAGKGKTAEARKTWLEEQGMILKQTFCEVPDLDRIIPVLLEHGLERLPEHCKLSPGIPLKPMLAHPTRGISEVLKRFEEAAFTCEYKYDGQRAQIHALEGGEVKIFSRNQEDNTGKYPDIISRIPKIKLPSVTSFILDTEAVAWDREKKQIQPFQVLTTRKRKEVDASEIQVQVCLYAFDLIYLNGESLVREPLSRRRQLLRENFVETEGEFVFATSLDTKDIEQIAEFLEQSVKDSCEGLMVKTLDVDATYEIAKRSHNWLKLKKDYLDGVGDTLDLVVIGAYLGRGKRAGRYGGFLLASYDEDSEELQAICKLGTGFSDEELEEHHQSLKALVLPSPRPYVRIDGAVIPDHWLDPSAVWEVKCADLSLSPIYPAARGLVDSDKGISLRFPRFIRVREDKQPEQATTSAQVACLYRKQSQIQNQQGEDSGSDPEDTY
UniProt P49917: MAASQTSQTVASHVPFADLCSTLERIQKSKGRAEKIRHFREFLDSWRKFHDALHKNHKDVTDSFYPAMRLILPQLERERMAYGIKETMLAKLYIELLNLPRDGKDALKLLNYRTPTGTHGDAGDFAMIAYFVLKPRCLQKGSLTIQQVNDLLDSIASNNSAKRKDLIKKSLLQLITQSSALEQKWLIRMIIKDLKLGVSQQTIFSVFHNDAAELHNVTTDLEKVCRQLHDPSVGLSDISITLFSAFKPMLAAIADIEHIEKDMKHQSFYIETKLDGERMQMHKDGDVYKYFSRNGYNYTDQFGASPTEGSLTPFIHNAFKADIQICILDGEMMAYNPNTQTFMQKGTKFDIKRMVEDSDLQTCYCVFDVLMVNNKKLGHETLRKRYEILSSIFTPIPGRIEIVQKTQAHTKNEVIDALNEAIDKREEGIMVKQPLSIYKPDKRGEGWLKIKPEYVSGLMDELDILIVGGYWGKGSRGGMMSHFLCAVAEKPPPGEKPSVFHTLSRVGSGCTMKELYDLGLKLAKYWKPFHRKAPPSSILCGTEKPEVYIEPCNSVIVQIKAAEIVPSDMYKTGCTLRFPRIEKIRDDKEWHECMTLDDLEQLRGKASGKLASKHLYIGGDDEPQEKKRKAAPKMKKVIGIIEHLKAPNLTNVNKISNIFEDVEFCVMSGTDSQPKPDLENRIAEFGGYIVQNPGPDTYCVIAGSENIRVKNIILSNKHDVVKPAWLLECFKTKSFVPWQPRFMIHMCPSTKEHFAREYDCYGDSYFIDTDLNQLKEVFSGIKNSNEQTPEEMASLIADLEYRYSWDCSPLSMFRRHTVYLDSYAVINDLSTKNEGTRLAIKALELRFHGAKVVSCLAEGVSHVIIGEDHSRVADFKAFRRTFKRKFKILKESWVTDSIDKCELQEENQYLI
UniProt Q86X29: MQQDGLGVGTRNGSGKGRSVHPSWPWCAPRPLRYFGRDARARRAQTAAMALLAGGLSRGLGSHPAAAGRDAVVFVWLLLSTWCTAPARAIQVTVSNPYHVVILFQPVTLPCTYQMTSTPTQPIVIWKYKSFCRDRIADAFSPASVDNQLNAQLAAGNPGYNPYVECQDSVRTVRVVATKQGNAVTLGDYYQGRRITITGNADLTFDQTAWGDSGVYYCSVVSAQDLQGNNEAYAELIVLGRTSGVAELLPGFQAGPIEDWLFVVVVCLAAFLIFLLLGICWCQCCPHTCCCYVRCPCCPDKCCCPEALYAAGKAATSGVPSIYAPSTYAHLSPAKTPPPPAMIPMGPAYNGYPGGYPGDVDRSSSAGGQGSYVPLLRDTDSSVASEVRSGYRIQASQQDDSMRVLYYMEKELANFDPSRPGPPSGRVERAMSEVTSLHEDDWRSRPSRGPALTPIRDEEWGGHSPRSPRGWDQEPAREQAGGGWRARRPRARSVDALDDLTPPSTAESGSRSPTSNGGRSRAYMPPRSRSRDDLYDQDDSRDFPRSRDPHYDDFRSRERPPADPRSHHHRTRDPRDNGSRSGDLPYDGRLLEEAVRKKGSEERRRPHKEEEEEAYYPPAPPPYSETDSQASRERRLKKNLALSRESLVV
UniProt Q5TKA1: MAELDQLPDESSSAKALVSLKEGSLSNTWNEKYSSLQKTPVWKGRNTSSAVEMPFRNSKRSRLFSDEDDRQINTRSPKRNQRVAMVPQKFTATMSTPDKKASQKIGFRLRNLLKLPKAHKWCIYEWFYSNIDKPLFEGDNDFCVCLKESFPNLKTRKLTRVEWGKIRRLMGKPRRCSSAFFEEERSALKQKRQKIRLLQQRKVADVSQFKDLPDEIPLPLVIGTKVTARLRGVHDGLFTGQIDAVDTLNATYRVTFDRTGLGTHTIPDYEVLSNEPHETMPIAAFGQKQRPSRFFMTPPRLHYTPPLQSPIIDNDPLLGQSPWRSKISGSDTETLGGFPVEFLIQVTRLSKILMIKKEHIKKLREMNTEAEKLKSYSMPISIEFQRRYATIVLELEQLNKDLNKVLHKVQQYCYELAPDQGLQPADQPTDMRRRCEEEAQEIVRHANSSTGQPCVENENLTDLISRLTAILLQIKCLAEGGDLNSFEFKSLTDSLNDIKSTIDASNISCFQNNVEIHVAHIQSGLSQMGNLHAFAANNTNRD
UniProt Q9C0E8: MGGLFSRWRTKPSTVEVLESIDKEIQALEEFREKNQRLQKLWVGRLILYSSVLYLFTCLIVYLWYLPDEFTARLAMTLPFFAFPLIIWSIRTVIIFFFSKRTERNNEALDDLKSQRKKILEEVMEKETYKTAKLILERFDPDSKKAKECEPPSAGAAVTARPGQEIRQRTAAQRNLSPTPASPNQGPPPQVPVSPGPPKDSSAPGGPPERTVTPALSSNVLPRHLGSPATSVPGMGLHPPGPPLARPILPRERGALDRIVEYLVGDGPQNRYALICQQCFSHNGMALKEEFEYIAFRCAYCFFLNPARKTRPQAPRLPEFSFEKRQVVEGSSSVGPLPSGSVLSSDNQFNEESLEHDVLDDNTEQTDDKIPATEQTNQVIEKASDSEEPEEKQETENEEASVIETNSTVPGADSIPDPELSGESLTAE

Compound: NC(=O)Nc1cc(-c2cccc(F)c2)sc1C(=O)N[C@H]1CCCNC1
Assay: log2 fold change, soluble protein after heating vs DMSO (PISA); higher = thermal stabilisation; K562 lysate, 10 uM; active = over 0.2 and 3.5 SD of the protein, either way, in both replicates (recomputed)
Outline: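 Dounce homogenisation of K562 pellets in PBS pH 7.4 with 1 mM MgCl2 produced a crude extract, used at 1 mg/mL protein. Exposure to 10 μM compound lasted 30 min, and aliquots were then heated for 3 min across 48°C-58°C, pooled and brought to 0.5% NP-40 at 4°C. The supernatant after 21,000xg for 90 min was quantified by TMTpro 16plex LC-MS/MS with channel sums equalised. Duplicate values are given as log-two fold change in thermal stability relative to solvent controls.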

log2 fold change, inactive:
LIN7C (UniProt Q9NUP9) -0.012, LRRC8D (UniProt Q7L1W4) 0.011, LIMA1 isoform 4 (UniProt Q9UHB6) 0.013, LRRC57 (UniProt Q8N9N7) -0.07, LMAN1 (UniProt P49257) 0.004, LMNB1 (UniProt P20700) -0.027, LSM2 (UniProt Q9Y333) 0.016, LINS1 (UniProt Q8NG48) 0.038, LIG1 (UniProt P18858) 0.013, LMBRD1 (UniProt Q9NUN5) 0.031, LRRCC1 (UniProt Q9C099) 0.341, LRCH3 (UniProt Q96II8) -0.005, LIG4 (UniProt P49917) 0.066, LRRC59 (UniProt Q96AG4) -0.057, LSR (UniProt Q86X29) 0.048, LIN9 isoform 2 (UniProt Q5TKA1) 0.01, LNPK (UniProt Q9C0E8) 0.012
